Experimental data: article PMC6868374

By UniProt entry, the sequences of proteins in these tests, tags left out. Where a name states a change or a piece, a line headed by the entry shows the natural chain unless it says otherwise.
UniProt Q80SU3: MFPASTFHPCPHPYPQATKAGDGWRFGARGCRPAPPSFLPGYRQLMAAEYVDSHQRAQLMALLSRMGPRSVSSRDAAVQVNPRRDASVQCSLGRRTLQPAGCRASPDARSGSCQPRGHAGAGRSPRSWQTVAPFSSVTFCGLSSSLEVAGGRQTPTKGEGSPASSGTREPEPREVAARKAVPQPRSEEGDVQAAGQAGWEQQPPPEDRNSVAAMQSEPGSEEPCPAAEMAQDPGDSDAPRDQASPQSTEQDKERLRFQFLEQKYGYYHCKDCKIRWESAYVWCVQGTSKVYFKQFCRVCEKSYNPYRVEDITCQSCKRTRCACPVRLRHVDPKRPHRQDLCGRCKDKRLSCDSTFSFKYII
UniProt Q9Y2T7: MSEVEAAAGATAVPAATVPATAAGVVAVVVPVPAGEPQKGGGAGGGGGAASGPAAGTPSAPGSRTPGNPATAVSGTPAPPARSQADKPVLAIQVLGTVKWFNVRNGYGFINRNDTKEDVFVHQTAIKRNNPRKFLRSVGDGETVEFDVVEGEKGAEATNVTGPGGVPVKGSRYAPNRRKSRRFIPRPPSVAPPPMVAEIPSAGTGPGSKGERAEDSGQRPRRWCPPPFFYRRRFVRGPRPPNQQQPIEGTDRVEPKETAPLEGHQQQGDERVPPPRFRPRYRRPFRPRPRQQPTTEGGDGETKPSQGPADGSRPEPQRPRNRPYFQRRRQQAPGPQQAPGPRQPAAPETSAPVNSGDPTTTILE

Target: ZAR1^4CS, cysteine-to-serine zinc finger mutant of mouse ZAR1 (mouse) (UniProt Q80SU3)
Assay: co-IP; proteins co-expressed in HeLa cells for 48 h; lysis in 50 mM Tris-HCl pH 7.5, 150 mM NaCl, 10% glycerol, 0.5% NP-40; immunoprecipitation with affinity gels (Sigma) for 4 h at 4°C; western blot

In the case of MSY2 (from UniProt Q9Y2T7 1-364), the binding is reported as “no binding”.

Results are given in words; binding and its absence hold for the method and conditions named. In cells and extracts the contact can be indirect.
